Results are given in words; binding and its absence hold for the method and conditions named.
Key:
[1] = target: mouse CD2-mCherry (mouse) (UniProt P08920); experiment: single-molecule brightness analysis (photon-counting histogram, PCMH); plasma membrane fraction of COS-7 cells solubilised with 1% Triton X-100 in PBS
[2] = target: mouse CD2-mCherry (mouse) (UniProt P08920); experiment: single-molecule brightness analysis (photon-counting histogram, PCMH); lysates of spermatozoa or of COS-7 cells in 1% Triton X-100/PBS, supernatant after 15,000g; brightness of mCherry fusions compared with mCherry, CD2-mCherry (monomer) and MYOCILIN-mCherry (dimer)

Sequences of proteins named here, by UniProt entry; tags and fusion partners are left off. Residues count along the entry.
UniProt P08920, residues 23-344: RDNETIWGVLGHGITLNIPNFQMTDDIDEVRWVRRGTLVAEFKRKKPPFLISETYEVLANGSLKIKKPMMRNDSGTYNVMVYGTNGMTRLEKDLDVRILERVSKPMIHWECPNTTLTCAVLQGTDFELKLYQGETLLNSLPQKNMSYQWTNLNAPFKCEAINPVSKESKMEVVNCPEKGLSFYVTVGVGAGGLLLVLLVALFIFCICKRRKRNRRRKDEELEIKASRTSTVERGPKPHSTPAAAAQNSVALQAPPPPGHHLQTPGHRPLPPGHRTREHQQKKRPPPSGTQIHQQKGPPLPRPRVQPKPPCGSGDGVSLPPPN

- binding [1]: no binding
- binding [2]: no binding
Substance: mouse CD2-mCherry (from UniProt P08920 23-344)
